This note sets out measurements from PubChem BioAssay AID1347423 (Functional Genomics Laboratory (NCATS/FGL), 2020).

Hit rate of the full screen: of about 52,000 sequences, about 210 (0.4%) were called active.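 How the source made its calls: active means gene whose silencing raises cell survival under the drug, median off-target-corrected z-score across its silencing RNAs 2 or more; inactive means the rest.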 This is one part of the list.

This test in a line: Resistance to Poly (ADP-Ribose) Polymerase inhibitor: Gene Identification via Genome-wide siRNA Screen. To be noted: mouse BRCA2 R2336H ES cells, olaparib, CellTiter-Glo viability; hits give high values. In short, it runs like this: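 Genome-wide siRNA screen (3 siRNAs/gene, 20 nM) in mouse ES cells carrying hypomorphic BRCA2 R2336H; olaparib 500 nM added 48 h post-transfection, CellTiter-Glo viability 72 h later. Normalized to plate-median negative control; MAD z-scores, gene median, seed-adjusted.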
For GGCACAGACUAAGGUAUAGTT against Adra2c, the z-score was inactive: 0.75. On to GGUAAAACCCAAUAGUAACTT against Gclm, for which the z-score is inactive: 0.487.

Regarding “GGAGAUGUUAAGCAAGAAGTT against 2010012F05Rik”, the z-score was inactive: -1.45. Next, “CCAUACAGAUCGCACCCUGTT against 2310047H23Rik”: inactive: 0.664; GCCUAUCUACGACCUCAUCTT against Kel: inactive: -0.252; GUGCUAUGUGAAGAGCAGCTT against Klri1: inactive: 1.06.

With GCAAAAUGGGAUUUGUCAUTT against Grm1, the z-score is inactive: 0.61. For CCGAGUCCAGAACACUCUUTT against Fmr2, the z-score is inactive: -0.936.

On to GGUUACCUCAUUUGACGGATT against BC048671, for which the z-score was inactive: 0.943. As for GGAGUACCAGAGUAUAUGATT against BC016495, the z-score is inactive: -1.98. In the case of “GGAUCAAUGGAUUCUGCACTT against 2310056P07Rik”, the z-score is inactive: -0.65.

As for GGUACAACUGUAAAUAUUCTT against Npc1, the z-score was inactive: 0.26. Regarding GACAGUGAUCACUUGUGGUTT against Ly6g6d, the z-score is inactive: 0.553. Consider GAGUGCUACAUUACGUACCTT against LOC435285, for which the z-score is inactive: 0.291. For GCUAAGAAACUGGUCUCAUTT against Reg4, the z-score is inactive: 0.53. Next, GCAUCCCUUCCGAGAAACATT against Bat3: inactive: -1.15; CCAGUCCUUGAAAAGAGCUTT against Olfr128: inactive: 0.716; GGACAUCUAUGAGUUUAGCTT against AI194308: inactive: -0.625. Regarding GGAAAGGAUACGAGACAAUTT against Kctd2, the z-score is inactive: -0.282.

On to GGUGACUGGAAAAGAGGCUTT against Spink3, for which the z-score is inactive: -1.84.

For CCAAUCGUAAUGACAAUUCTT against Myo1d, the z-score is inactive: 0.164. For GGUAUCUGCAUGUCUUAAUTT against Snx14 the value was inactive: -1.88; for CCGAUAUGUGAAAAUUAAGTT against Rpl32, inactive: -1.48; for GCCUAUCAUCGAGUGUGUATT against Gphb5, inactive: -0.954.

As to GGAAGAUUCCUUAACCAAGTT against Setmar, the z-score was inactive: 1.01. Next, “CGAAUAGGGAGCCAUAAGATT against 2310057H16Rik”: inactive: 3.19. In the case of GGUCCUUUACAUGAACCGCTT against Vps18, the z-score is inactive: -1.12. As to UAAAAAUGAGCCGGGCAAUTT against Ms4a5, the z-score is inactive: -0.696. Regarding GGAUAUCACAUUUGUUGCUTT against Anapc4, the z-score is inactive: -2.35.
